Experimental data published in patent US20080039522A1, “Composition Containing a Complex Comprising a Metal Ion and a Carboxylate Ligand Having Anti-Inflammatory Activity” (Medical Therapies Limited, priority 2004, published 2008).
For at least one compound, name, drawing or mass did not settle the structure.

Columns and labels:
Format in all cases: in vivo, rat
Sprague-Dawley rats [1] = test: Small intestinal toxicity of topical creams; details: topical emulsifying cream, four rats
Protocol: In Vivo Small Intestinal Toxicity.
All rat experiments were performed as outlined in Example 7, except for the following changes.
In Vivo Anti-inflammatory Activity and Gastric Toxicity. For topical administration, rats were treated with test compositions containing [Cu2(Indo)4(OH2)2] (“CuIndo”), [Zn(Indo)2(OH2)2] (“ZnIndo”), IndoH, or an equivalent Indo and Cu dose of a physical mixture of [Cu2(OAc)4(OH2)2] and IndoH thoroughly mixed in an emulsifying cream (see below). An amount of 0.2 g of the composition was applied to the right hind paw of each animal and gently massaged in for 1 minute at three-hourly intervals. Inflammation was induced at the final topical application with an injection of carrageenan (0.1 mL, 1% w/v in isotonic saline) into the plantar region of the hind paw.

Sprague-Dawley rats [2] = test: Gastric toxicity after subcutaneous or intramuscular injection; details: four rats
Protocol: In Vivo Anti-inflammatory Activity and Gastric Toxicity. Groups of four rats were used for all studies. All doses were calculated as equivalent concentrations of Indo. […] For subcutaneous and intramuscular administration, rats were injected with 125-200 μL volumes of the test compositions (IndoH or [Cu2(Indo)4(OH2)2] in MCT oil). The control cohort was injected with equivalent volumes of neat MCT. Subcutaneous injections were made in the lower dorsal surface and intramuscular injections were made in the right hind thigh muscle. Inflammation was induced 1 h after dosing by injection of the formulation by an injection of carrageenan (0.1 mL, 1% w/v in isotonic saline) into the plantar region of the hind paw.
Paw volume was measured prior to dosing and at 3 h after carrageenan injection by immersing the left hind paw (to the lateral malleus) into a vessel filled with water as described in Example 5. Immediately after paw volume measurements, 24 h-fasted animals were euthanised and the stomach was excised and opened by incision along the greater curvature.

Sprague-Dawley rats [3] = test: Small intestinal toxicity after subcutaneous injection; details: non-fasting, four rats

Row | Structure (SMILES) | S I ulcers (mm^2), small intestinal ulceration (Sprague-Dawley rats [1]; conc. 0.5 % equiv of Indo) | S I ulcers (mm^2), small intestinal ulceration (Sprague-Dawley rats [1]; conc. 1 % equiv of Indo) | Gastric ulcers (mm^2) (Sprague-Dawley rats [2]; intramuscular, fasting rats, 2 mg/kg equivalent dose of Indo) | Gastric ulcers (mm^2) (Sprague-Dawley rats [2]; intramuscular, fasting rats, 10 mg/kg equivalent dose of Indo) | Gastric ulcers (mm^2) (Sprague-Dawley rats [2]; intramuscular, fasting rats, 20 mg/kg equivalent dose of Indo) | Gastric ulcers (mm^2) (Sprague-Dawley rats [2]; subcutaneous, 1 mg/kg of Indo, fasting) | Gastric ulcers (mm^2) (Sprague-Dawley rats [2]; subcutaneous, 2 mg/kg of Indo, fasting) | Gastric ulcers (mm^2) (Sprague-Dawley rats [2]; subcutaneous, 5 mg/kg of Indo, fasting) | Gastric ulcers (mm^2) (Sprague-Dawley rats [2]; subcutaneous, 10 mg/kg of Indo, fasting) | Gastric ulcers (mm^2) (Sprague-Dawley rats [2]; subcutaneous, 20 mg/kg of Indo, fasting) | Gastric ulcers (mm^2) (Sprague-Dawley rats [2]; subcutaneous, 20 mg/kg of Indo, non-fasting) | Intestinal ulcers (mm^2) (Sprague-Dawley rats [3]; 5 mg/kg of Indo) | Intestinal ulcers (mm^2) (Sprague-Dawley rats [3]; 7.5 mg/kg of Indo) | Intestinal ulcers (mm^2) (Sprague-Dawley rats [3]; 10 mg/kg of Indo) | Intestinal ulcers (mm^2) (Sprague-Dawley rats [3]; 20 mg/kg of Indo) | S I ulcers (mm^2), small intestinal ulceration (Sprague-Dawley rats [1]; conc. 0.75 % equiv of Indo) | S I ulcers (mm^2), small intestinal ulceration (Sprague-Dawley rats [1]; conc. 2 % equiv of Indo)
1 | COc1ccc2c(c1)c(CC(=O)[O-])c(C)n2C(=O)c1ccc(Cl)cc1.COc1ccc2c(c1)c(CC(=O)[O-])c(C)n2C(=O)c1ccc(Cl)cc1.O.O.[Zn+2] [ZnIndo, [Zn(Indo)2(OH2)2]] | 0, 0, 0, 0 mm^2 | 10, 15, 4, 0 mm^2 | – | – | – | – | – | – | – | – | – | – | – | – | – | – | –
2 | COc1ccc2c(c1)c(CC(=O)[O-])c(C)n2C(=O)c1ccc(Cl)cc1.COc1ccc2c(c1)c(CC(=O)[O-])c(C)n2C(=O)c1ccc(Cl)cc1.COc1ccc2c(c1)c(CC(=O)[O-])c(C)n2C(=O)c1ccc(Cl)cc1.COc1ccc2c(c1)c(CC(=O)[O-])c(C)n2C(=O)c1ccc(Cl)cc1.O.O.[Cu+2].[Cu+2] [[Cu2(Indo)4(OH2)2]] | 0, 0, 0, 0 mm^2 | 6, 3, 0, 0 mm^2 | 0, 0, 0, 0 mm^2 | 3, 0, 1, 7 mm^2 | 0, 10, 25, 5 mm^2 | 0, 0, 0, 0 mm^2 | 0, 0, 0, 0 mm^2 | 0, 1, 0, 0 mm^2 | 0, 2, 5, 2 mm^2 | 8, 23, 20, 15 mm^2 | 0, 0, 0, 0 mm^2 | 0, 0, 0, 0 mm^2 | 0, 0, 0, 0 mm^2 | 2, 3, 0, 1 mm^2 | 70, 80, 110, 20 mm^2 | 0, 0, 0, 0 mm^2 | 3, 5, 40, 45 mm^2
